From the supplement of paper PMC10849652
Some of the results follow. Residues, ends and D or L forms follow the SMILES beside them. *: point of attachment. Cbz = O=C(OCc1ccccc1)*

The chains behind the UniProt entries cited, without tags or fusion partners. Where a name states a change or a piece, a line headed by the entry shows the natural chain unless it says otherwise.
UniProt O15247: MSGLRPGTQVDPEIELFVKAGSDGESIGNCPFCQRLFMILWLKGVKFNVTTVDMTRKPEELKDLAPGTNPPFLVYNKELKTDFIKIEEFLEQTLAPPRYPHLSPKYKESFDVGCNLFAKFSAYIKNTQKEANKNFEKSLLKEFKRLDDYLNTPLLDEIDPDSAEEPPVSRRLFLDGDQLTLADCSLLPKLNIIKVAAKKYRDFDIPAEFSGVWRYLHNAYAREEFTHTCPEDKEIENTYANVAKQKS
UniProt P05452, whole entry, looked up: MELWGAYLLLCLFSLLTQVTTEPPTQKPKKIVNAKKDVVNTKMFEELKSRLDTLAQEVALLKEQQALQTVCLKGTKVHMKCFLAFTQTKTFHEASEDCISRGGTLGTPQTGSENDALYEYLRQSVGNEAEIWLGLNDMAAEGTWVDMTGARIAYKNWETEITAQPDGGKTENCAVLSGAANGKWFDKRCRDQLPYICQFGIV
UniProt Q16740, whole entry, looked up: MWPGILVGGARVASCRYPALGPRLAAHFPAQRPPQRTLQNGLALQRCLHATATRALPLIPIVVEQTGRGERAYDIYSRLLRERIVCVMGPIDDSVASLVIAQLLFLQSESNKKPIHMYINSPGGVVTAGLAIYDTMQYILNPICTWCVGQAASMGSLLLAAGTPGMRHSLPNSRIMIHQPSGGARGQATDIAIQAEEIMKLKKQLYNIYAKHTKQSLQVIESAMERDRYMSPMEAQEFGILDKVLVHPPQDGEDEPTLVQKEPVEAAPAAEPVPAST
UniProt Q2KHT3: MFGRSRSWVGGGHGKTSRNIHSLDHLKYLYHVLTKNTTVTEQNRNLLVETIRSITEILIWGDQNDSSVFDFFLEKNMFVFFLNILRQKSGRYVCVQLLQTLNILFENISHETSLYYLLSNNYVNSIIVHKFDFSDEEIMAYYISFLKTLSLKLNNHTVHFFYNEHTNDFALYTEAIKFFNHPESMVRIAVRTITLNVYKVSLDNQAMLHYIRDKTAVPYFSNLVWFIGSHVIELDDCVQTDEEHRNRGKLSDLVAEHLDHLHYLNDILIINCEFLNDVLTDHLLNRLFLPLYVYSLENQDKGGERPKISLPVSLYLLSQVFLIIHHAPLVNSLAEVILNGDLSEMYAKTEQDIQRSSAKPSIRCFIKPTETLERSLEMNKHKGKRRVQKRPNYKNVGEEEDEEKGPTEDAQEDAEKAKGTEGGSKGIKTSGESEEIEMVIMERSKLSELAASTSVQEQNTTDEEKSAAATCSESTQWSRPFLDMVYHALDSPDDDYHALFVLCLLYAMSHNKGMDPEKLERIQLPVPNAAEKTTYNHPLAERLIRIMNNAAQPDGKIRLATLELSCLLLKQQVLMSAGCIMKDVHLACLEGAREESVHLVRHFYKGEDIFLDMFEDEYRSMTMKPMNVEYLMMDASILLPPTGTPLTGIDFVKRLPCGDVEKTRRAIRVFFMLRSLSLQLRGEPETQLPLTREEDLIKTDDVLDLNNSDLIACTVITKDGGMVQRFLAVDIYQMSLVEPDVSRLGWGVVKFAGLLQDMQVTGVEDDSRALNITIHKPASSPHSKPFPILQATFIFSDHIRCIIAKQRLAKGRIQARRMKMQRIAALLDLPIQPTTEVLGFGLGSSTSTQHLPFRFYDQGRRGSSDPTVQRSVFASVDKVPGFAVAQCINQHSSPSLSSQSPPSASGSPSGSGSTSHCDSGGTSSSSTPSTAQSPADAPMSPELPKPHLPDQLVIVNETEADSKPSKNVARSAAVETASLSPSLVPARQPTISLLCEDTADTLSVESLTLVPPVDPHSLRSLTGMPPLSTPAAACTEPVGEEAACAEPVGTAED
UniProt Q7Z460: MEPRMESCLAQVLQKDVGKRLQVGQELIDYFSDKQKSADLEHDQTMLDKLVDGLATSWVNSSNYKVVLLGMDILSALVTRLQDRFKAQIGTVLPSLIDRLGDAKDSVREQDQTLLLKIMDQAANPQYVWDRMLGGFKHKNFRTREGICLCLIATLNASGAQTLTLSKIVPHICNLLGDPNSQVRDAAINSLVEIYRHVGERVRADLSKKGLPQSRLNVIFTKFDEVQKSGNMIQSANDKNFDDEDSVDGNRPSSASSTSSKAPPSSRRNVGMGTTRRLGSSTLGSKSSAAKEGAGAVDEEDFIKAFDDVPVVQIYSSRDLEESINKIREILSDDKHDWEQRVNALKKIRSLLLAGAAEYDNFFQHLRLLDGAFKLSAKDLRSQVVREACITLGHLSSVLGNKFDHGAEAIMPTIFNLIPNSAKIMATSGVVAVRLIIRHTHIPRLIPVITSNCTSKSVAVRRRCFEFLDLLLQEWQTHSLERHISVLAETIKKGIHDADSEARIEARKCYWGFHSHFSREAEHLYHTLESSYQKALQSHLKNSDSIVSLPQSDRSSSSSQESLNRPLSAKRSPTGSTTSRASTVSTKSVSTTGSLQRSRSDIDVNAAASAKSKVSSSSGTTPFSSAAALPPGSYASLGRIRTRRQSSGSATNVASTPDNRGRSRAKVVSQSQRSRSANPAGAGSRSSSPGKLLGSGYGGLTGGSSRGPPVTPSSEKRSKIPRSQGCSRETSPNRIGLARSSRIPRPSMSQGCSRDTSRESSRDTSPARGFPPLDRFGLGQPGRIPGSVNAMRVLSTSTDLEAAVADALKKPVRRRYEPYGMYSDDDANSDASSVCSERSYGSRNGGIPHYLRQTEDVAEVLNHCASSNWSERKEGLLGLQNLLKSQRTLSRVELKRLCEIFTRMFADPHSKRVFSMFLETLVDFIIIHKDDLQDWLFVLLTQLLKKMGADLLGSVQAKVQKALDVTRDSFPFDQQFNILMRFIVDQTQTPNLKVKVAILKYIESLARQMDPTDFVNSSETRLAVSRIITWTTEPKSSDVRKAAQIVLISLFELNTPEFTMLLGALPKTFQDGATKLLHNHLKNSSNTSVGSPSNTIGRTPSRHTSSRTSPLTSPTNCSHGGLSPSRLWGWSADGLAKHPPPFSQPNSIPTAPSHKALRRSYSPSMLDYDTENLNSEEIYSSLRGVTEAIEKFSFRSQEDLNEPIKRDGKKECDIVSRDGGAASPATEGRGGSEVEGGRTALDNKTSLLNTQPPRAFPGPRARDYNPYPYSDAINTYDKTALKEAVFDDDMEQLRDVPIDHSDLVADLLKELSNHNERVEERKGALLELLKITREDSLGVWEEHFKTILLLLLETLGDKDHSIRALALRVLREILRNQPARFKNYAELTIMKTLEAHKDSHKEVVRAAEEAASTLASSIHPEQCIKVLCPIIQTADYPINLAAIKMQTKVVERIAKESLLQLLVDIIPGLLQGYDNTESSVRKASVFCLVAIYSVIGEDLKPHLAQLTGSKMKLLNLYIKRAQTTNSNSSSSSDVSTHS
UniProt Q9HAW4: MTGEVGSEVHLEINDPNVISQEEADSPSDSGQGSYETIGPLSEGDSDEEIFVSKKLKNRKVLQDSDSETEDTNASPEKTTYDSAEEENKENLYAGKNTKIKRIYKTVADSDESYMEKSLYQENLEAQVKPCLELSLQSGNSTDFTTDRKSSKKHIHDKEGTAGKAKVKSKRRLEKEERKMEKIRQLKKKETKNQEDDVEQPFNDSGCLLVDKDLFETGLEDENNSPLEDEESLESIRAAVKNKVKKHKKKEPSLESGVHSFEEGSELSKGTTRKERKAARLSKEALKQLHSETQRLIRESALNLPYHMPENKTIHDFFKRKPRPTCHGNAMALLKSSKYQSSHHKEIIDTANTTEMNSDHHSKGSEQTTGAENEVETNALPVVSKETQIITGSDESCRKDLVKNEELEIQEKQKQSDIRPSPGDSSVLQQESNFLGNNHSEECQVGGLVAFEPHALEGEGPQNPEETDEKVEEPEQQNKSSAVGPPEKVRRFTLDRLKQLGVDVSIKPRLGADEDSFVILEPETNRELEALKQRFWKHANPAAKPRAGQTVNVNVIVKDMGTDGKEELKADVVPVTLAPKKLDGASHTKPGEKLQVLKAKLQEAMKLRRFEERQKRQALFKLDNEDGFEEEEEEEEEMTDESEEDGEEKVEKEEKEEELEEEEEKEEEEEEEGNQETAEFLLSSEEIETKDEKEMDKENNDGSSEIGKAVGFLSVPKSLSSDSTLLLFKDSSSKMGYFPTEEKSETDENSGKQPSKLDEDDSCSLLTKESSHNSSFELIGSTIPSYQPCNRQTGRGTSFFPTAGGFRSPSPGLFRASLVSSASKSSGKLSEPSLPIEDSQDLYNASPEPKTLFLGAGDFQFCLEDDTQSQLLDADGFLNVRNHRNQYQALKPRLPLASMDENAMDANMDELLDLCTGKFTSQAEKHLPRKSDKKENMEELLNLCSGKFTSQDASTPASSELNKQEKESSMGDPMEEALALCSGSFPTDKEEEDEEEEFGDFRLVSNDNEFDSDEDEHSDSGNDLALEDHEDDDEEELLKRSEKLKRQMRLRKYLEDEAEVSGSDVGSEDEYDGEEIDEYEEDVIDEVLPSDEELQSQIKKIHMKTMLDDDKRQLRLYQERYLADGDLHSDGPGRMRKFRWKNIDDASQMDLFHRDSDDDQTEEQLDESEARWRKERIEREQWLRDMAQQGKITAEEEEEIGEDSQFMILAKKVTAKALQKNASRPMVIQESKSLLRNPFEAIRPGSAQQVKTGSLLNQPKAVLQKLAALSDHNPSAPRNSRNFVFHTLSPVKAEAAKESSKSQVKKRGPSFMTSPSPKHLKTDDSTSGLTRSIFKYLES
UniProt Q9NY35: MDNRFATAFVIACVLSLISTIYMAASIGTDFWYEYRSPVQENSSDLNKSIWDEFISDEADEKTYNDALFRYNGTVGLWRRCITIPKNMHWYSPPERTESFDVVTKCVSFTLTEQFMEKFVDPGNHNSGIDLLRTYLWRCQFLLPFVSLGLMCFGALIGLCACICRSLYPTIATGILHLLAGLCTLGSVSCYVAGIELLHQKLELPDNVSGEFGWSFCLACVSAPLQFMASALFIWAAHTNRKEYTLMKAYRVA
UniProt Q9Y696: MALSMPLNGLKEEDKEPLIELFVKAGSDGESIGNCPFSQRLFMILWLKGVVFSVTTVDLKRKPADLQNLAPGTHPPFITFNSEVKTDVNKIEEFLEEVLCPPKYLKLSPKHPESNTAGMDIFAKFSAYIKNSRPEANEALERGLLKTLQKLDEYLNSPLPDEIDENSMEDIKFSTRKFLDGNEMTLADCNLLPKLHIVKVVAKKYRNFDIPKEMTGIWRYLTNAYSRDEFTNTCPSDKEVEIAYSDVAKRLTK
UniProt Q8N3C7: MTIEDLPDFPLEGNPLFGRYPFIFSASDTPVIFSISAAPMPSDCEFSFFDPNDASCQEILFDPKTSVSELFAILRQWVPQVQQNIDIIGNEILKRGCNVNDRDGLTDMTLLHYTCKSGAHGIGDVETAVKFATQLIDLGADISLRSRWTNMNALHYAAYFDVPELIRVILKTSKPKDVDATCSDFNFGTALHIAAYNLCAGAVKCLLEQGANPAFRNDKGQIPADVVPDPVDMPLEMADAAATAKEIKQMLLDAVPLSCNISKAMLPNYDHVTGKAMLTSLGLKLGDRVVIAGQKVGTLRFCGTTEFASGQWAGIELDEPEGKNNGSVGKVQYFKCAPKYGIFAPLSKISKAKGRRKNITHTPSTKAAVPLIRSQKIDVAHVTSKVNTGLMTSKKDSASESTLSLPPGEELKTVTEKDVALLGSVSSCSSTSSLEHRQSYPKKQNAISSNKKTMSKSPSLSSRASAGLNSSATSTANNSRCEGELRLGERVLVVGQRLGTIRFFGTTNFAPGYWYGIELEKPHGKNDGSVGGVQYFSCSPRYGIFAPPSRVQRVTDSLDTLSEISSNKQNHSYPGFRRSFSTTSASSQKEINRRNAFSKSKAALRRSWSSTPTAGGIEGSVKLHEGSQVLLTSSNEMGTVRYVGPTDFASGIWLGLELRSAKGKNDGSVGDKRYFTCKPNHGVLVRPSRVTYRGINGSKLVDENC
UniProt Q8WWK9: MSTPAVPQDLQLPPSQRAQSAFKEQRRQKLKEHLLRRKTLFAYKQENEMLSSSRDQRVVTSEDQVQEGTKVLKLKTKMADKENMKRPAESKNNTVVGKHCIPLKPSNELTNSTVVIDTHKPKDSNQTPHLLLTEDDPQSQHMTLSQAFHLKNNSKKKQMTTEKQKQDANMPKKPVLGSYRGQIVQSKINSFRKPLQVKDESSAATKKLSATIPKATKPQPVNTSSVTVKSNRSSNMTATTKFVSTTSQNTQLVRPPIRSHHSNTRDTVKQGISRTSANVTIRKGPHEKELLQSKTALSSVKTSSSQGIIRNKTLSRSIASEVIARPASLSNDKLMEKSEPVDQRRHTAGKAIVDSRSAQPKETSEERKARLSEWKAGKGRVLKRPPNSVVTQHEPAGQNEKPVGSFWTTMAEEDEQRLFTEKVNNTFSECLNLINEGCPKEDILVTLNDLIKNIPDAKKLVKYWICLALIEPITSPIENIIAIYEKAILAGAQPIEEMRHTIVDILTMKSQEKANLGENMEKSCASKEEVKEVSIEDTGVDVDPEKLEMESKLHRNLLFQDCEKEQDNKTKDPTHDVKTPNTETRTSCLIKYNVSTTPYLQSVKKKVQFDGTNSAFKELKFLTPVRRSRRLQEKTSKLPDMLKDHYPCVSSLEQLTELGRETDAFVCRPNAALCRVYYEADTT

What was measured:
Test in all cases: log2 fold change, soluble protein after heating vs DMSO (PISA); higher = thermal stabilisation; K562 cells, 10 uM, 30 min; active = over 0.2 and 3.5 SD of the protein, either way, in both replicates (recomputed)
[1] = compound: C#Cc1cccc(Nc2ncnc3cc(OCCOC)c(OCCOC)cc23)c1 [erlotinib]
How it was run: (§1)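 K562 cells (2×10^6 cells/mL) were treated with 10 μM compound for 30 min, and aliquots were heated for 3 min over 48°C-58°C. Pooled aliquots were extracted in PBS with 0.5% NP-40 at 4°C, and the supernatant after 21,000xg for 90 min was measured by TMTpro 16plex LC-MS/MS with channel sums equalised. Reported thermal stability, relative to control samples and from duplicates, is a log2 fold change.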

[2] = compound: C/C(=N\NC(=O)C1=CC(=CC=C1)S(=O)(=O)N2CCOCC2)/C3=C(C=CC(=C3)Cl)O
How it was run: as §1

[3] = compound: C1=CC(=C(C=C1Cl)C2=NC3=NC=CN=C3C(=N2)NC4=CC=NC=C4)F
How it was run: as §1

[4] = compound: C1=CC(=CC=C1C2=NC3=C(N2)C=C(C=C3)C(=O)N)OC4=CC=C(C=C4)Cl
How it was run: as §1

[5] = compound: C1=CC2=C(C=CC(=C2)/C=C\3/C(=O)NC(=NCC4=CC=CS4)S3)N=C1
How it was run: as §1

[6] = compound: C1=CC2=NC=CN=C2C=C1/C=C/3\C(=O)NC(=O)S3
How it was run: as §1

[7] = compound: C1=CC=C(C=C1)C2=NC(=C(N2)C3=CC=NC=C3)C4=CC(=C(C=C4)Cl)O
How it was run: as §1

[8] = compound: C1=CC=C2C(=C1)C3=NNC4=CC=CC(=C43)C2=O
How it was run: as §1

[9] = compound: C1CCN(C1)C(=O)NC2=CC=CC(=C2)NC3=NC=C(C(=N3)NCCC4=CN=CN4)Br
How it was run: as §1

[10] = compound: C1CN(CCC1(CC2=CC=C(C=C2)Cl)N)C3=NC=NC4=C3C=CN4
How it was run: as §1

[11] = compound: C1COCCN1CCN2C3=CC=CC=C3N=C2NC(=O)C4=CC(=CC=C4)[N+](=O)[O-] [IRAK-1-4 Inhibitor I]
How it was run: as §1

[12] = compound: CC(=O)c1cnc2ccc(-c3cc(Cl)c(O)c(Cl)c3)nc2c1N[C@H]1CC[C@H](CN(C)C)CC1
How it was run: as §1

[13] = compound: CC(C)(C)Cn1c(N)nc2ccc(-c3[nH]c(C(C)(C)C)nc3-c3ccc(F)cc3)nc21 [ralimetinib]
How it was run: as §1

[14] = compound: CC(C)(O)CC(=O)NCCn1ccc2ncnc(Nc3ccc(Oc4cccc(C(F)(F)F)c4)c(Cl)c3)c21
How it was run: as §1

[15] = compound: CC(C)C1=C2N=C(C=C(N2N=C1)NCC3=CC=CC=C3)NCCCCCCN
How it was run: as §1

[16] = compound: CC(C)C[C@@H](C=O)NC(=O)[C@H](CC(C)C)NC(=O)[C@H](CC(C)C)NC(=O)OCc1ccccc1
How it was run: as §1

[17] = compound: CC(C)N(C[C@H]1O[C@@H](n2cnc3c(N)ncnc32)[C@H](O)[C@@H]1O)[C@H]1C[C@@H](CCc2nc3cc(C(C)(C)C)ccc3[nH]2)C1 [pinometostat]
How it was run: as §1

[18] = compound: CC1=C(C(CC(=O)N1)C2=CC=C(C=C2)C(F)(F)F)C(=O)NC3=C(C=C4C(=C3)C=NN4)F
How it was run: as §1

[19] = compound: CC1=C(C2=C(C=C1)C(=O)C3=CC=CC=C3N2CCCN)C
How it was run: as §1

[20] = compound: C=CC(=O)N1CCC[C@@H](n2nc(-c3ccc(Oc4ccccc4)cc3)c3c(N)ncnc32)C1 [ibrutinib]
How it was run: as §1

Measured: log2 fold change

CLIC2 (UniProt O15247)
inactive: [1] 0.053 | [2] 0.062 | [3] 0.058 | [4] 0.003 | [5] 0.005 | [6] 0.012 | [7] 0.013 | [8] 0.007 | [9] -0.046 | [10] -0.059 | [11] -0.074 | [12] -0.051 | [13] -0.015 | [14] -0.112 | [15] -0.114 | [16] 0.01 | [17] 0.022 | [18] 0 | [19] 0.01

CLEC3B (UniProt P05452)
inactive: [1] -0.38 | [2] -0.07 | [3] 0.028 | [4] 0.255 | [5] 0.061 | [6] 0.129 | [7] 0 | [8] -0.2 | [9] 0.154 | [10] 0.268 | [12] 0.118 | [13] -0.007 | [14] 0.279 | [15] 0.124 | [16] 0.007 | [18] 0.171 | [19] -0.286

CNTN4 (UniProt Q8IWV2)
active: [2] -0.641
inactive: [1] 0.284 | [3] 0.012 | [4] 0.018 | [5] 0.179 | [6] -0.095 | [7] 0.05 | [8] 0.097 | [9] -0.097 | [10] 0.194 | [11] 0.049 | [20] 0.023 | [12] 0.065 | [13] 0.025 | [14] -0.108 | [15] 0.195 | [16] 0.044 | [17] -0.027 | [19] 0.137

CLPP (UniProt Q16740)
inactive: [1] -0.025 | [2] 0.013 | [3] -0.069 | [4] 0.037 | [5] 0.042 | [6] 0.003 | [7] 0.023 | [8] 0.035 | [9] -0.028 | [10] 0.022 | [11] -0.023 | [12] 0.022 | [13] -0.012 | [14] 0.017 | [15] 0.097 | [16] -0.008 | [17] -0.094 | [19] 0.079

CLEC16A (UniProt Q2KHT3)
inactive: [1] -0.023 | [2] 0.018 | [3] 0.048 | [4] 0.003 | [5] -0.029 | [6] -0.001 | [7] -0.004 | [8] -0.015 | [9] 0.038 | [10] 0.015 | [11] 0.029 | [12] 0.012 | [13] -0.069 | [14] -0.016 | [15] 0.057 | [16] 0.023 | [17] 0.016 | [18] 0.065 | [19] -0.021

CLGN (UniProt O14967)
inactive: [1] -0.021 | [2] -0.042 | [3] -0.028 | [4] 0.084 | [5] -0.183 | [6] 0.044 | [7] -0.049 | [8] -0.04 | [9] -0.012 | [10] -0.068 | [11] -0.058 | [12] -0.023 | [13] -0.08 | [14] -0.016 | [15] 0.02 | [16] 0.02 | [17] 0.041 | [18] 0.085 | [19] -0.16

CLUH, A0A494C0R8
active: [12] 0.508
inactive: [1] -0.008 | [2] -0.081 | [3] 0.253 | [4] -0.107 | [5] 0.127 | [6] 0.235 | [7] -0.081 | [8] 0.03 | [9] 0.07 | [10] 0.05 | [11] -0.016 | [13] -0.125 | [14] -0.231 | [15] -0.257 | [16] 0.199 | [17] -0.044 | [19] 0.046

CLPTM1 (UniProt O96005)
inactive: [1] -0.033 | [2] 0.076 | [3] -0.002 | [4] 0.004 | [5] -0.036 | [6] 0.045 | [7] -0.015 | [8] 0.016 | [9] 0.016 | [10] 0.005 | [11] 0.001 | [12] 0.054 | [13] -0.034 | [14] 0.022 | [15] -0.163 | [16] 0.041 | [17] 0.042 | [18] 0.038 | [19] 0.025

CLASP1 (UniProt Q7Z460)
inactive: [1] 0.046 | [2] 0.164 | [3] -0.033 | [4] -0.054 | [5] 0.075 | [6] -0.056 | [7] 0.03 | [8] 0.014 | [9] -0.048 | [10] -0.031 | [11] -0.101 | [12] -0.284 | [13] 0.083 | [14] -0.086 | [15] -0.193 | [16] 0.075 | [17] 0.106 | [18] 0.056 | [19] 0.05

CHPF2 (UniProt Q9P2E5)
inactive: [1] 0.219 | [2] -0.015 | [3] -0.036 | [4] -0.039 | [5] -0.058 | [6] 0.009 | [7] 0.024 | [8] 0.069 | [9] -0.136 | [10] -0.057 | [20] 0.013 | [12] 0.037 | [13] 0.134 | [14] 0.058 | [15] -0.034 | [16] -0.015 | [18] 0.09 | [19] 0.033

CLSPN (UniProt Q9HAW4)
active: [19] -0.541
inactive: [1] -0.09 | [2] -0.022 | [3] -0.024 | [4] 0.02 | [5] -0.035 | [6] 0.032 | [7] -0.062 | [8] -0.027 | [9] -0.083 | [10] 0.033 | [11] 0.028 | [12] -0.04 | [13] -0.033 | [14] 0.038 | [15] -0.062 | [16] 0.124 | [17] -0.018

CLDND1 (UniProt Q9NY35)
inactive: [1] 0.028 | [2] 0.027 | [3] -0.114 | [4] -0.018 | [5] -0.045 | [6] 0.081 | [7] -0.022 | [8] 0.024 | [9] -0.159 | [10] 0.036 | [11] -0.034 | [12] -0.031 | [13] 0.03 | [14] -0.025 | [15] 0.006 | [16] 0.061 | [17] 0.106 | [18] 0 | [19] 0.024

CLIC4 (UniProt Q9Y696)
inactive: [1] 0.021 | [2] 0.036 | [3] 0.049 | [4] -0.016 | [5] 0.03 | [6] 0.003 | [7] -0.009 | [8] 0 | [9] -0.007 | [10] -0.006 | [11] 0.03 | [12] 0 | [13] -0.075 | [14] 0 | [15] 0.027 | [16] 0.02 | [17] -0.038 | [18] -0.009 | [19] 0.026

2 entries drawn at random from the list so far:
CNTN4 (UniProt Q8IWV2)
active: [2] -0.641
inactive: [1] 0.284 | [3] 0.012 | [4] 0.018 | [5] 0.179 | [6] -0.095 | [7] 0.05 | [8] 0.097 | [9] -0.097 | [10] 0.194 | [11] 0.049 | [20] 0.023 | [12] 0.065 | [13] 0.025 | [14] -0.108 | [15] 0.195 | [16] 0.044 | [17] -0.027 | [19] 0.137

CLUH, A0A494C0R8
active: [12] 0.508
inactive: [1] -0.008 | [2] -0.081 | [3] 0.253 | [4] -0.107 | [5] 0.127 | [6] 0.235 | [7] -0.081 | [8] 0.03 | [9] 0.07 | [10] 0.05 | [11] -0.016 | [13] -0.125 | [14] -0.231 | [15] -0.257 | [16] 0.199 | [17] -0.044 | [19] 0.046

Carrying on:

CLIP4 (UniProt Q8N3C7)
inactive: [1] 0.04 | [2] -0.038 | [3] 0.049 | [4] -0.009 | [5] -0.031 | [6] 0.04 | [7] -0.015 | [8] 0.002 | [9] -0.004 | [10] -0.009 | [11] 0.096 | [12] -0.077 | [13] -0.04 | [14] 0.079 | [15] -0.045 | [16] 0.028 | [17] -0.061 | [18] -0.013 | [19] 0.094

CLCN3 isoform 2 (UniProt P51790)
inactive: [1] 0.008 | [2] 0.089 | [3] 0.059 | [4] 0.044 | [5] 0.024 | [6] -0.002 | [7] 0.025 | [8] -0.017 | [9] -0.012 | [10] 0.033 | [11] 0.005 | [12] -0.008 | [13] 0.026 | [14] -0.043 | [15] -0.049 | [16] -0.066 | [17] -0.043 | [19] 0.051

CNEP1R1 isoform 2 (UniProt Q8N9A8)
inactive: [1] 0.082 | [2] 0.029 | [4] 0.075 | [5] -0.015 | [8] 0.219 | [9] -0.307 | [10] 0.02 | [12] -0.117 | [15] -0.005 | [19] 0.283

CKAP2 (UniProt Q8WWK9)
inactive: [1] -0.024 | [3] -0.558 | [4] 0.09 | [7] -0.119 | [9] 0.023 | [10] -0.009 | [11] -0.272 | [13] 0.36 | [14] 0.038 | [15] -0.549 | [16] 0.075 | [17] 0.234 | [18] 0.029 | [19] 0.008

COG7 (UniProt P83436)
inactive: [1] -0.008 | [2] 0.087 | [3] -0.032 | [4] -0.235 | [5] -0.148 | [7] 0.083 | [8] -0.012 | [12] 0.397 | [13] 0.037 | [14] 0.086 | [15] -0.195 | [16] 0.08

CLN5 (UniProt O75503)
inactive: [1] 0.146 | [2] -0.049 | [3] 0.063 | [4] 0.103 | [5] 0.023 | [6] 0.016 | [8] 0.15 | [9] -0.02 | [10] -0.285 | [11] 0.023 | [12] -0.03 | [14] 0.001 | [15] -0.62 | [17] -0.062 | [19] -0.028
